For 73 compounds, normalized bacterial growth results are on record in the supplement of paper PMC10398353.

Where “and” joins values, the source holds several entries; their conditions need not be identical. Equal entries are not always repeated. Structures can show the parent of a compound that is named as a salt. ± gives the standard deviation of the averaged measurements. This is one part of the list. Single values of this set are uncertain.

This assay relates to Salmonella enterica serovar Typhimurium ST313 D23580. Put plainly: normalized bacterial growth (OD600 20 h minus 0 h, interquartile-mean normalized) (fraction of plate interquartile mean); higher = more bacterial growth (less inhibition). The following applies: LPM (pH 5.8, low phosphate, low Mg2+), concentration: 10 µM, temperature: 37 °C.
`COc1cc([C@@H]2c3cc4c(cc3[C@H](OC(C)=O)[C@H]3COC(=O)[C@H]23)OCO4)cc(OC)c1OC` registered a normalized bacterial growth of 0.94.
`COc1cc(C=C(C#N)C#N)cc(O)c1O` [Tyrphostin AG 34]: the normalized bacterial growth was 0.886.
Under `C[C@]12CCC(=O)C=C1CC[C@@H]1[C@@H]2C(=O)C[C@]2(C)C(=O)CC[C@@H]12` [Adrenosterone] stands 0.823; under `NC(=O)CN1CC(O)CC1=O` (stereo not drawn) [Oxiracetam], 1.03.
The compound `CC(C)[C@@]1(O)[C@@H](OC(=O)c2ccc[nH]2)[C@@]2(O)[C@@]3(C)C[C@]4(O)O[C@@]5([C@H](O)[C@@H](C)CC[C@]35O)[C@@]2(O)[C@@]14C` had a normalized bacterial growth of 1.41.
`COc1ccn(C)c(=O)c1C#N` [Ricinine]: the normalized bacterial growth stood at 0.843.
On to `NC(=O)c1ccc(OCC(O)CN2CC=C(c3ccc(F)cc3)CC2)cc1` (stereo not drawn), for which the normalized bacterial growth is 0.933.
`CC(C)=CC1C(C(=O)OCc2cccc(Oc3ccccc3)c2)C1(C)C` (stereo not drawn) yielded a normalized bacterial growth of 1.04.
Under `C[N+](C)(C)CC#CCN1CCCC1=O` [Oxotremorine methiodide] stands 1.31.
Under `C[CH2][Hg][S]c1ccccc1C(=O)[O-].[Na+]` stands 0.128; under `COc1ccc(CNC(=O)/C=C/c2ccc3[nH]cc(CCN(C)C)c3c2)cc1`, 0.685.
Under `CC1(C)C(=O)C=C[C@]2(C)[C@H]3CC[C@@]4(C)[C@H](c5ccoc5)OC(=O)[C@H]5O[C@]54[C@]3(C)[C@H](O)C[C@@H]12` stands 0.948.
With `ClC1=C(Cl)C2(Cl)C3C(Cl)C=CC3C1(Cl)C2(Cl)Cl` (stereo not drawn), the normalized bacterial growth was 1.26.
For the compound `O=C1C=C2C=C[C@@H]3C[C@@]2(O1)[C@H]1CCCCN31`, the normalized bacterial growth came to 1.04.
Compound `O=C1C=C2C=C[C@@H]3C[C@@]2(O1)[C@H]1CCCCN31` [Securinine] gave a normalized bacterial growth of 1.12.
For `CC1Cc2cc3c(cc2C(c2ccc(N)cc2)=NN1)OCO3` (stereo not drawn), the normalized bacterial growth was determined as 1.24.
The compound `CC(=O)C1=C(O)[C@@H]2[C@H]3c4c[nH]c5cccc(c45)C[C@H]3C(C)(C)N2C1=O` registered a normalized bacterial growth of 0.994.
Take `CN1CCC(c2c[nH]c3ccc(O)cc23)CC1`: the normalized bacterial growth came out at 1.04.
With `COc1ccc2[nH]c3c(c2c1)CCN=C3C` [Methoxy-6-harmalan], the normalized bacterial growth is 0.705.
Under `N#Cc1c(Cl)cccc1Cl` stands 0.903; under `O[C@H]1[C@H]2[C@H](O)CCCN2C[C@H]1O`, 0.914; under `COc1cc([C@@H]2c3cc4c(cc3[C@H](O)[C@H]3COC(=O)[C@@H]23)OCO4)cc(OC)c1OC`, 0.783.
Compound `CCCC(C)C1(CC)C(=O)NC(=S)NC1=O` (stereo not drawn) showed a normalized bacterial growth of 1.22.
Compound `C/C=C(/C)C(=O)O[C@H]1CC[C@@]2(C)[C@@H]3CC[C@H]4[C@]5(O)C[C@H](O)[C@@]6(O)[C@@H](CN7C[C@@H](C)CC[C@H]7[C@@]6(C)O)[C@]5(O)C[C@@]42O[C@]13O` returned a normalized bacterial growth of 0.866 ± 0.032.
Under `O=c1ccc2c(O)c3ccoc3cc2o1` stands 1.19.
On to `ClC1=C(Cl)C2(Cl)C3C4CC(C5OC45)C3C1(Cl)C2(Cl)Cl` (stereo not drawn), for which the normalized bacterial growth is 1.11.
Regarding `CCCCCCC(C)(C)c1ccc([C@@H]2C[C@H](O)CC[C@H]2CCCO)c(O)c1`, the normalized bacterial growth stood at 0.728.
`CCCn1c(=O)c2[nH]c(C3CCCC3)nc2n(CCCOC(=O)c2ccc(S(=O)(=O)F)cc2)c1=O` had a normalized bacterial growth of 0.945.
`CCOC(=O)c1cncn1[C@H](C)c1ccccc1` came in with a normalized bacterial growth of 0.907.
Compound `COc1cc2ccc(=O)oc2c2ccoc12` returned a normalized bacterial growth of 0.909.
Under `NCC1(CC(=O)O)CCCCC1` [Gabapentin] stands 1.35; under `NCC1(CC(=O)O)CCCCC1`, 1.1.
Take `O=c1cccc2n1C[C@@H]1CNC[C@H]2C1`: the normalized bacterial growth was 1.19 and 1.01.
`CC[C@@H](C)C(=O)O[C@H]1[C@H](O)[C@H]2[C@@H](CN3C[C@@H](C)CC[C@H]3[C@@]2(C)O)[C@@H]2C[C@]34O[C@]5(O)[C@@H](OC(=O)[C@@](C)(O)CC)CC[C@@]3(C)[C@@H]5[C@@H](OC(C)=O)[C@@H](OC(C)=O)[C@H]4[C@@]21O` [Protoveratrine A] came in with a normalized bacterial growth of 1.12.
`CC[C@@H](C)C(=O)O[C@H]1[C@H](O)[C@H]2[C@@H](CN3C[C@@H](C)CC[C@H]3[C@@]2(C)O)[C@@H]2C[C@]34O[C@]5(O)[C@@H](OC(=O)[C@@](C)(O)CC)CC[C@@]3(C)[C@@H]5[C@@H](OC(C)=O)[C@@H](OC(C)=O)[C@H]4[C@@]21O` registered a normalized bacterial growth of 0.532.
Under `COC[C@H]1OC(=O)c2coc3c2[C@@]1(C)C1=C(C3=O)C2CCC(=O)[C@@]2(C)C[C@H]1OC(C)=O` (stereo partly drawn) [Wortmannin from Penicillium funiculosum] stands 1.15.
Under `O=C(CCCN1CCC2(CC1)C(=O)NCN2c1ccccc1)c1ccc(F)cc1` [Spiperone hydrochloride] stands 0.867.
`O=C(CCCN1CCC2(CC1)C(=O)NCN2c1ccccc1)c1ccc(F)cc1`: the normalized bacterial growth was determined as 0.921.
Under `CC(C)C[C@H]1C(=O)N2CCC[C@H]2[C@]2(O)O[C@](NC(=O)[C@@H]3C=C4c5cccc6[nH]cc(c56)C[C@H]4N(C)C3)(C(C)C)C(=O)N12` [Ergocryptine-alpha] stands 0.672; under `CC1=CCCC2C1(C)CCC(C)C2(C)CC/C(C)=C/Cn1c[n+](C)c2c(N)ncnc21` (stereo not drawn) [AGELASINE (stereochemistry of diterpene unknown)], 0.902; under `CC1(C)C(=O)[C@@H]2O[C@@H]2[C@@]2(C)C1C[C@@H](O)[C@]1(C)C2CC[C@@]2(C)[C@H](c3ccoc3)OC(=O)C3OC321` (stereo partly drawn) ["1,2alpha-EPOXYDEACETOXYDIHYDROGEDUNIN"], 0.74.
In the case of `O=[N+]([O-])O[C@H]1CO[C@H]2[C@@H]1OC[C@H]2O[N+](=O)[O-]`, the normalized bacterial growth is 0.879.
In the case of `CCN1C[C@]2(COC)CC[C@H](O)[C@]34C1[C@@](O)([C@@H](OC)[C@H]23)[C@@]1(O)C[C@H](OC)[C@H]2C[C@@H]4[C@@H]1[C@H]2OC` [Delsoline], the normalized bacterial growth was found to be 1.14.
In turn, `CCN1C[C@]2(COC)CC[C@H](OC)[C@]34C5C[C@@H]6[C@@H](OC)C[C@@]7(OCO[C@@]7(C13)[C@@H](O)C24)C5[C@H]6OC` (stereo partly drawn) [Delcorine] registered a normalized bacterial growth of 1.25.
Compound `CCN1C[C@]2(COC)CC[C@H](OC)[C@]34C5C[C@@H]6[C@@H](OC)C[C@@]7(OCO[C@@]7(C13)[C@@H](O)C24)C5[C@H]6OC` (stereo partly drawn) yielded a normalized bacterial growth of 1.03.
`CC(C)Oc1cccnc1N(C)C1CCN(Cc2ccccc2)CC1` had a normalized bacterial growth of 1.14.
Under `c1cncc([C@@H]2CCCCN2)c1` stands 1.18 and 0.994.
`c1cncc([C@@H]2CCCCN2)c1` [Anabasine] displayed a normalized bacterial growth of 0.957.
Under `COc1cc(C(O)CN)ccc1O` (stereo not drawn) [()-Normetanephrine hydrochloride] stands 1.05.
`NC(Cc1cc(O)c(O)cc1O)C(=O)O` (racemic) [6-Hydroxy-DL-DOPA] had a normalized bacterial growth of 1.14.
The compound `CC(=O)O[C@H]1C(=O)[C@@]2(C)[C@H]([C@H](OC(=O)c3ccccc3)[C@]3(O)C[C@H](O)C(C)=C1C3(C)C)[C@]1(OC(C)=O)CO[C@@H]1C[C@@H]2O` returned a normalized bacterial growth of 0.935 ± 0.11.
As to `CC(C)(C#N)O[C@@H]1O[C@H](CO)[C@@H](O)[C@H](O)[C@H]1O`, the normalized bacterial growth came out at 1.01.
Under `CC(C)(O)[C@@H]1[C@H]2OC(=O)[C@@H]1[C@]1(O)C[C@H]3O[C@]34C(=O)O[C@H]2[C@]14C` stands 0.978; under `O=c1[nH]oc2c1CCNC2` [THIP hydrochloride], 1.01; under `C=C(C)[C@H]1Cc2c(ccc3c(=O)c4c(oc23)COc2cc(OC)c(OC)cc2-4)O1`, 0.925.
`COc1ccc2c(c1O)-c1cccc3c1[C@@H](C2)N(C)CC3` [R(-)-Apocodeine hydrochloride] yielded a normalized bacterial growth of 1.04.
Under `CCC(C)C(=O)OC1CC2(C)C(c3ccoc3)OC(=O)CC23OC2(C)OC34C(OC(=O)C(C)C)C3(O)C(OC(=O)C5(C)OC5C)C5(C)CC3(O)C(C)(C5CC(=O)OC)C14O2` (stereo not drawn) stands 0.845; under `C[N+]1(C)CCc2cc3c(cc2[C@H]1[C@@H]1OC(=O)c2c1ccc1c2OCO1)OCO3`, 0.793; under `C[N+]1(C)CCc2cc3c(cc2[C@H]1[C@@H]1OC(=O)c2c1ccc1c2OCO1)OCO3` ["(-)-Bicuculline methbromide, 1(S), 9(R)"], 0.984.
Regarding `C=CCc1cc(OC)c2c(c1OC)OCO2`, the normalized bacterial growth was found to be 1.1.
Regarding `NC(CCP(=O)(O)O)C(=O)O` (stereo not drawn) [()-2-Amino-4-phosphonobutyric acid], the normalized bacterial growth was determined as 0.963.
As to `C[N+]1(C)[C@@H]2CC(OC(=O)[C@H](CO)c3ccccc3)C[C@H]1[C@@H]1O[C@@H]12` (single isomer, unassigned; (-)) [(-)-Scopolamine methyl nitrate], the normalized bacterial growth stood at 1.1.
Under `COc1cc2c(cc1OC)[C@@H]1C(=O)c3ccc4c(c3O[C@@H]1CO2)CC(C(C)C)O4` (stereo partly drawn) stands 0.783.
Take `NC(N)=Nc1ccc2[nH]c3c(c2c1)C[C@@]1(O)[C@H]2Cc4ccc(O)c5c4[C@@]1(CCN2CC1CC1)[C@H]3O5` [Guanidinyl-naltrindole di-trifluoroacetate]: the normalized bacterial growth was 0.104.
Consider `CCOC(=O)c1ncn2c1[C@@H]1CCCN1C(=O)c1cc(OC)ccc1-2`, for which the normalized bacterial growth is 1.11.
The compound `CCC1(C2=NCCN2)Cc2ccccc2O1` (stereo not drawn) [Efaroxan hydrochloride] returned a normalized bacterial growth of 1.08.
With `CC[C@@H](CO)NC(=O)[C@@H]1C=C2c3cccc4[nH]cc(c34)C[C@H]2N(C)C1`, the normalized bacterial growth was 0.821.
Regarding `CC[C@@H](CO)NC(=O)[C@@H]1C=C2c3cccc4[nH]cc(c34)C[C@H]2N(C)C1` [Methylergonovine maleate], the normalized bacterial growth was determined as 1.01.
Under `C/C(=C/C=C/[C@@H](C)C(=O)O)[C@H]1CN[C@H](C(=O)O)[C@H]1CC(=O)O` stands 1.15.
Turning to `COc1ccc2c(c1OC)C(=O)O[C@@H]2[C@H]1c2cc3c(cc2CCN1C)OCO3` [Hydrastine hydrochloride], the normalized bacterial growth turned out to be 0.893.
`O=[N+]([O-])c1ccc(O[C@@H]2O[C@H](CO)[C@@H](O)[C@H](O)[C@H]2F)c([N+](=O)[O-])c1` ["2,4-Dinitrophenyl 2-fluoro-2-deoxy-beta-D-glucopyranoside"]: the normalized bacterial growth worked out at 1.25.
Under `C[N+]12CC[C@@]34c5ccccc5N5C(=O)C[C@@H]6OCC=C(C1)[C@H](C[C@@H]32)[C@@H]6[C@H]54` (stereo partly drawn) stands 1.11.
Under `O=C(O)c1nn(Cc2ccc(Cl)cc2Cl)c2ccccc12` [Lonidamine] stands 0.949.
